# PubChem BioAssay AID1259278, Sanger Institute – 2017
# Test: 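Knock-downs synthetic lethal with BYL719, cetuximab or trametinib in colorectal cancer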 (follow-up of hits)
# System: human HT55 colorectal cancer cells
# Reagents: single siRNA against human genes
# Conditions: anchor drugs added to knock-down cells: cetuximab 5 µg/ml, trametinib 10 nM or BYL719 1 µM, against DMSO vehicle; chosen to hurt viability little alone
# Measured: 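Per-replicate viability normalised to control pool 2 (non-targeting) then averaged, and for every anchor drug a computed synergy score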
# Direction: synergy score with BYL719 and synergy score with cetuximab and synergy score with trametinib: higher = stronger combined killing with knock-down; viability, knock-down alone (DMSO): higher = more cells survive
# Active means: 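a synergy score over 0.10 with BYL719, cetuximab or trametinib makes the knock-down a hit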
# Meaning of the calls: active = synergy with an anchor drug; inactive = no synergy
# Shown is a random part of 160 reagents tested. 54 of all reagents (34%) count as active. 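Each call rests on one siRNA duplex in one cell line; gene-level support needs several duplexes and lines.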 Entries without a mark were called inactive. The numbers tell different reagents against one gene apart. No viability above 1 is reported: the scale is capped. Not given: the amount of reagent, the time to read-out.
The first 2 records, ahead of the listing:
Target gene,reagent,synergy score with BYL719,synergy score with cetuximab,synergy score with trametinib,"viability, knock-down alone (DMSO)"
PRAG1 (GeneID 157285),1,-0.196,-0.0315,-0.115,0.604
PRAG1 (GeneID 157285),2,-0.137,-0.0825,0.0168,0.614

Main list, from the start:
Target gene,reagent,synergy score with BYL719,synergy score with cetuximab,synergy score with trametinib,"viability, knock-down alone (DMSO)"
PRAG1 (GeneID 157285),1,-0.196,-0.0315,-0.115,0.604
PRAG1 (GeneID 157285),2,-0.137,-0.0825,0.0168,0.614
PRAG1 (GeneID 157285),3,-0.0883 (active),0.166,-0.261,0.886
PRAG1 (GeneID 157285),4,-0.149 (active),0.015,0.115,0.906
GUCY2D (GeneID 3000),1,0.0329 (active),0.233,0.262,0.999
GUCY2D (GeneID 3000),2,-0.0539 (active),0.182,0.278,0.882
GUCY2D (GeneID 3000),3,0.00761,-0.0191,0.097,0.674
GUCY2D (GeneID 3000),4,-0.213,0.0615,0.0432,1
PLK1 (GeneID 5347),1,0.0442,-0.00326,0.0324,0.315
PLK1 (GeneID 5347),2,-0.0826,-0.0269,-0.0413,0.207
PLK1 (GeneID 5347),3,-0.021,0.065,0.03,0.313
PLK1 (GeneID 5347),4,0.0171,0.0172,-0.0368,0.216
NLK (GeneID 51701),1,-0.0595 (active),-0.13,0.103,1
NLK (GeneID 51701),2,-0.182,0.0208,0.0671,0.729
NLK (GeneID 51701),3,-0.331,0.0418,0.0601,1
NLK (GeneID 51701),4,-0.169,-0.062,-0.088,0.739
IRAK1 (GeneID 3654),1,-0.0615,0.0128,-0.0814,0.714
IRAK1 (GeneID 3654),2,-0.0845,-0.0666,-0.0186,0.753
IRAK1 (GeneID 3654),3,0.0984 (active),0.114,0.0583,0.801
IRAK1 (GeneID 3654),4,-0.0526,-0.02,-0.092,0.754
CDKN2D (GeneID 1032),1,-0.195,0.00539,-0.00642,0.699
CDKN2D (GeneID 1032),2,0.0186 (active),-0.0783,0.104,0.694
CDKN2D (GeneID 1032),3,-0.331,-0.116,0.0508,1
CDKN2D (GeneID 1032),4,-0.0312,-0.0664,-0.0523,0.547
